Reference: publication PMC13340245

By UniProt entry, the sequences of proteins in these tests, tags left out. Where a name states a change or a piece, a line headed by the entry shows the natural chain unless it says otherwise.
UniProt A0R7G5: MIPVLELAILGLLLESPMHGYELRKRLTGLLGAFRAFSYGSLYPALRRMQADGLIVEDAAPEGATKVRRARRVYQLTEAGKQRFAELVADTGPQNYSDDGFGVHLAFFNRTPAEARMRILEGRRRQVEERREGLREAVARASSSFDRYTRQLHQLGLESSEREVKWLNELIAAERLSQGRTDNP
UniProt A0QWT1: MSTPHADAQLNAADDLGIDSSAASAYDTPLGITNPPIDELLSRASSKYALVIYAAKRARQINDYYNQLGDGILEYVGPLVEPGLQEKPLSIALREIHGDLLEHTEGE

B1: CwsA (protein, UniProt A0QNF5 1-136)
chain: MPARADVRLAPRQRLTRGLKYTAVGPVDITRGVLGIGADTAQATAAELRRRYASGKLQRQLAAAAEAVAALPETIQEAVQEVVSPPKKRRRRPLLIAAVAVTVLGGGAAAFSIVRRRSRPQEPPTLAPSVEVAPKP
B2: KhpA (protein, UniProt A0QV38 1-76)
chain: MVDAVEHLVRGIVDNPDDVRVDMVTNRRGRTVEVHVHPDDLGKVIGRGGRTATALRTLVAGIGGRGIRVDVVDTDQ
B3: DnaA (protein, UniProt A0R7K1 1-504)
chain: MTADPDPPFVAVWNSVVAELNGDVNGDRQGDPSLPVLTPQQRAWLKLVKPLVIAEGFALLSVPTPFVQNEIERHLREPIVTALSRKLGQRVELGVRIATPTDEPEDAPDSFADSPAPASVPAGPADADEIDDDRDARVNAQESWPKYFSRPEPDTSSDDSNAVNLNRRYTFDTFVIGASNRFAHAATLAIAEAPARAYNPLFIWGESGLGKTHLLHAAGNYAQRLFPGMRVKYVSTEEFTNDFINSLRDDRKASFKRSYRDIDILLVDDIQFIEGKEGIQEEFFHTFNTLHNSNKQIVISSDRPPKQLATLEDRLRTRFEWGLITDVQPPELETRIAILRKKAQMDRLDVPDDVLELIASSIERNIRELEGALIRVTAFASLNKTRIDRSLAEVVLRDLIADATTMQISTAAIMAVTAEYFETTVEELRGPGKTRALAQSRQIAMYLCRELTDLSLPKIGQAFGRDHTTVMYAEKKIRGEMAERREVFDHVKELTTRIRQRAKR

Key:
[1] = target: NapM fused with a FLAGx3 tag (M. smegmatis) (UniProt A0R7G5); test: affinity purification with mass spectrometry; pull-down with NapM fused with a FLAGx3 tag, then mass spectrometry; methods in the supplement
[2] = target: NapM fused with a FLAGx3 tag (M. smegmatis) (UniProt A0R7G5); test: as above; remark: listed apart in the source

Molecule	binding [1]	binding [2]
ω subunit of DNA-directed RNA polymerase (from UniProt A0QWT1 1-107)	binds	–
B1	–	binds
B2	–	binds
B3	–	no binding

Like-named read-outs stand apart in the source and are kept apart here. Results are given in words; binding and its absence hold for the method and conditions named. Binding seen in cells or lysates may run through a third protein. These calls come from enrichment with a bait or labelling near it, and not all partners need be listed. For some of these results: No binding means not detected with the bait.
